Assay results from patent US4360516A, “Modified D-retro cyclic hexapeptide somatostatin analogs” (Merck & Co., Inc., priority 1981, dated 1982).
Not every detail of the peptide structures is certain; ends, links or a residue may be inferred.

Tested on: growth hormone release, rat pituitary cells
Test: in vitro test for the inhibition of growth hormone release in cultured rat pituitary cells
Format: cell-based
Settings: multiples or fractions of the effect of somatostatin (arbitrary value 1); rat pituitary cells after 4 days in culture, 4 hours incubation, graded doses; growth hormone by radioimmunoassay
Description: The instant cyclic hexapeptide analogs ofsomatostatin are tested and compared with the effects of somatostatin in an in vitro test for the inhibition of growth hormone. The test is described as follows:
"Rat pituitaries" were isolated according to the procedures of Vale and Grant `In vitro Pituitary Hormone Secretion Assay for Hypophysiopic Substances` in Methods in Enzymology. Vol.XXXVII, eds. O'Malley, B. W. and Hardman, J. G. (Academic Press, Inc., New York) pp.5-93 (1975).
"After 4 days in culture, the cells were washed and incubated for 4 hours in Dulbecco-modified Eagle's medium in the presence or absence of graded doses of each analog of somatostatin. The medium was then collected for subsequent growth hormone determination by a double antibody radioimmunoassay for rat growth hormone."
The test results for some of the compounds of this invention are recorded below with the results for somatostatin listed first and given the arbitrary value of 1. The results for the instant compounds are given as multiples or fractions of the effect of somatostatin. The first of the instant compounds listed is the compound prepared in Examples 1-5. The compound is written slightly different, however, to conform to the order of the amino acids found in somatostatin.

## C[C@H](N)C(=O)NCC(=O)N[C@H]1CSSC[C@@H](C(=O)O)NC(=O)[C@H](CO)NC(=O)[C@H]([C@@H](C)O)NC(=O)[C@H](Cc2ccccc2)NC(=O)[C@H]([C@@H](C)O)NC(=O)[C@H](CCCCN)NC(=O)[C@H](Cc2c[nH]c3ccccc23)NC(=O)[C@H](Cc2ccccc2)NC(=O)[C@H](Cc2ccccc2)NC(=O)[C@H](CC(N)=O)NC(=O)[C@H](CCCCN)NC1=O [Somatostatin]
  Growth Hormone Release Inhibition In Vitro: 1
